Results as given in publication PMC6997367.
No constants are given. Whether binding was seen depends on the method and setting. In cells and extracts the contact can be indirect. Some binding calls cover weakened binding; strength is not graded here. One block for each substance: values may come before it.

The chains behind the UniProt entries cited, without tags or fusion partners. Where a name states a change or a piece, a line headed by the entry shows the natural chain unless it says otherwise. A line that says so, or that is headed by a name, gives the form on record, which may keep a tag or linker.
UniProt Q9Y297: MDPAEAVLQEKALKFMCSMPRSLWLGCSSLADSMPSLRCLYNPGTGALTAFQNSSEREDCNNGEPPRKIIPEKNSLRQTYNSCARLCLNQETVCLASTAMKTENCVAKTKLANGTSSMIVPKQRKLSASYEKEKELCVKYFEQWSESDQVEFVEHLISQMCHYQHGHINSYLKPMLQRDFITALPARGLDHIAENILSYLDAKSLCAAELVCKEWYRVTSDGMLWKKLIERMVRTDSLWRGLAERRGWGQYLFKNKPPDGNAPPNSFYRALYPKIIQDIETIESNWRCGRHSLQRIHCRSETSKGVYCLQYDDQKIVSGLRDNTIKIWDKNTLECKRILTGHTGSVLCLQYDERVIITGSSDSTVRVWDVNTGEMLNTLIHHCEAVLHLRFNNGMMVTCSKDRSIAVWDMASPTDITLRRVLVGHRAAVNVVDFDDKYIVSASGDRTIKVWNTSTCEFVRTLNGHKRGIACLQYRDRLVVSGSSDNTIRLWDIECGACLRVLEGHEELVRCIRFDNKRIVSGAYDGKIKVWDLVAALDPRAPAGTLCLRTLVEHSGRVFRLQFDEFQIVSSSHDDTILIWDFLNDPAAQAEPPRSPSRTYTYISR
FLAG-TOP2β (wild-type) (Q02880-2, form named): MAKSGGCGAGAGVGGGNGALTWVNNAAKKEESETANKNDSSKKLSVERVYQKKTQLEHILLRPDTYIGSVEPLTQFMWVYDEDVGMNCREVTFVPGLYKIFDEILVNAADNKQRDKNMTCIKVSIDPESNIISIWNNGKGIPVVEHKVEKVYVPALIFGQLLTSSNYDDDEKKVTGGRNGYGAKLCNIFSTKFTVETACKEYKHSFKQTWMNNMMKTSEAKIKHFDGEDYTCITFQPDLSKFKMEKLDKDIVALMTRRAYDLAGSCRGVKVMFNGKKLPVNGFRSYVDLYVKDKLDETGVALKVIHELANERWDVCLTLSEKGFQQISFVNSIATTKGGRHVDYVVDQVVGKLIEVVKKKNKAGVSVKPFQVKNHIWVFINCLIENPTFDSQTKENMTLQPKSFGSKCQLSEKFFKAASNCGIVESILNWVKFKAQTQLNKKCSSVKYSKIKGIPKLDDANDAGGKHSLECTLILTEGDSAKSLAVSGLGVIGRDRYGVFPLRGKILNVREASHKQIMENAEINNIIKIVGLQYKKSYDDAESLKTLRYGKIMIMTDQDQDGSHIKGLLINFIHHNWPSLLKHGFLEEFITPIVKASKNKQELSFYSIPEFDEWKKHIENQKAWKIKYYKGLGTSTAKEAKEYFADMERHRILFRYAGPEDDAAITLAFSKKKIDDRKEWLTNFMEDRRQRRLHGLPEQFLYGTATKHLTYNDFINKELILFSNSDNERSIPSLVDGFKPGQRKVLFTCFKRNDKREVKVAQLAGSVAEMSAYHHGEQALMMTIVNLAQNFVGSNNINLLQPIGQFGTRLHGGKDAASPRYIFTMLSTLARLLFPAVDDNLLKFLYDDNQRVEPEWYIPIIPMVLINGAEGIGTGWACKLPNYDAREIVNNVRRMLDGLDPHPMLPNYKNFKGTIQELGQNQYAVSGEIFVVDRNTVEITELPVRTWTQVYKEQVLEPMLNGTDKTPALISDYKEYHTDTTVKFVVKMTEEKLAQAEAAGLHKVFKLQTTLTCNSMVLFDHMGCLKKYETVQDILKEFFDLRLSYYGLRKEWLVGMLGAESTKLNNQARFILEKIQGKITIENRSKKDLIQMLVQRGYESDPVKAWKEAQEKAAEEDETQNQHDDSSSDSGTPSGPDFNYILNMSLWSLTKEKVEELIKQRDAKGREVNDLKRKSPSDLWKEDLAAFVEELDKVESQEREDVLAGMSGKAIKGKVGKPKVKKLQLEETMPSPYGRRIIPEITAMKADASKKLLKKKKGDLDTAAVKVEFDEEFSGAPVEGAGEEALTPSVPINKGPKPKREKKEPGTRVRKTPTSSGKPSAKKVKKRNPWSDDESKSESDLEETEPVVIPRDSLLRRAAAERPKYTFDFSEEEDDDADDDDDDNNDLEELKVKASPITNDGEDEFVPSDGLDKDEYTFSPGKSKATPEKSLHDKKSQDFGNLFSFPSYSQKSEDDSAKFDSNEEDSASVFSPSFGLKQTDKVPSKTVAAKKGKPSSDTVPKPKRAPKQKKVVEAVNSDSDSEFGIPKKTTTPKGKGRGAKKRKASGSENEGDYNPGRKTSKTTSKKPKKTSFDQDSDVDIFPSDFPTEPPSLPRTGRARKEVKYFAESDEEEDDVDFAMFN

Tests used:
[1] = target: FLAG-β-TrCP1 (UniProt Q9Y297); assay: co-IP; HEK293 cells transfected with FLAG-β-TrCP1, left untreated or treated with VM-26 and MG132 (20 μM) for 5 h; IP with anti-FLAG beads, immunoblot
[2] = target: β-TrCP1 (endogenous, HeLa) (human (endogenous in HeLa)) (UniProt Q9Y297); assay: co-IP; HeLa cell lysate; IP with β-TrCP1 antibody or normal rabbit IgG; immunoblot with anti-TOP2β
[3] = target: FLAG-TOP2β (wild-type) (UniProt Q02880); assay: co-IP; HEK293 cells transfected with the indicated plasmids (TOP2β wild type or degron mutants), treated with MG132 and VM-26 for 5 h; IP with anti-FLAG beads, immunoblot

binding [1]: binds
Substance: endogenous TOP2β (HEK293) (from UniProt Q02880-2 1-1621)

binding [2]: binds
Substance: endogenous TOP2β (HeLa) (from UniProt Q02880-2 1-1621)

binding [3]: binds
Substance: β-TrCP1 (in the IP of Fig. 3c) (from UniProt Q9Y297 1-605)
